Measurements as given in publication PMC10297930.

Amino acid sequences for entries named in this document (tags omitted).
UniProt P15924: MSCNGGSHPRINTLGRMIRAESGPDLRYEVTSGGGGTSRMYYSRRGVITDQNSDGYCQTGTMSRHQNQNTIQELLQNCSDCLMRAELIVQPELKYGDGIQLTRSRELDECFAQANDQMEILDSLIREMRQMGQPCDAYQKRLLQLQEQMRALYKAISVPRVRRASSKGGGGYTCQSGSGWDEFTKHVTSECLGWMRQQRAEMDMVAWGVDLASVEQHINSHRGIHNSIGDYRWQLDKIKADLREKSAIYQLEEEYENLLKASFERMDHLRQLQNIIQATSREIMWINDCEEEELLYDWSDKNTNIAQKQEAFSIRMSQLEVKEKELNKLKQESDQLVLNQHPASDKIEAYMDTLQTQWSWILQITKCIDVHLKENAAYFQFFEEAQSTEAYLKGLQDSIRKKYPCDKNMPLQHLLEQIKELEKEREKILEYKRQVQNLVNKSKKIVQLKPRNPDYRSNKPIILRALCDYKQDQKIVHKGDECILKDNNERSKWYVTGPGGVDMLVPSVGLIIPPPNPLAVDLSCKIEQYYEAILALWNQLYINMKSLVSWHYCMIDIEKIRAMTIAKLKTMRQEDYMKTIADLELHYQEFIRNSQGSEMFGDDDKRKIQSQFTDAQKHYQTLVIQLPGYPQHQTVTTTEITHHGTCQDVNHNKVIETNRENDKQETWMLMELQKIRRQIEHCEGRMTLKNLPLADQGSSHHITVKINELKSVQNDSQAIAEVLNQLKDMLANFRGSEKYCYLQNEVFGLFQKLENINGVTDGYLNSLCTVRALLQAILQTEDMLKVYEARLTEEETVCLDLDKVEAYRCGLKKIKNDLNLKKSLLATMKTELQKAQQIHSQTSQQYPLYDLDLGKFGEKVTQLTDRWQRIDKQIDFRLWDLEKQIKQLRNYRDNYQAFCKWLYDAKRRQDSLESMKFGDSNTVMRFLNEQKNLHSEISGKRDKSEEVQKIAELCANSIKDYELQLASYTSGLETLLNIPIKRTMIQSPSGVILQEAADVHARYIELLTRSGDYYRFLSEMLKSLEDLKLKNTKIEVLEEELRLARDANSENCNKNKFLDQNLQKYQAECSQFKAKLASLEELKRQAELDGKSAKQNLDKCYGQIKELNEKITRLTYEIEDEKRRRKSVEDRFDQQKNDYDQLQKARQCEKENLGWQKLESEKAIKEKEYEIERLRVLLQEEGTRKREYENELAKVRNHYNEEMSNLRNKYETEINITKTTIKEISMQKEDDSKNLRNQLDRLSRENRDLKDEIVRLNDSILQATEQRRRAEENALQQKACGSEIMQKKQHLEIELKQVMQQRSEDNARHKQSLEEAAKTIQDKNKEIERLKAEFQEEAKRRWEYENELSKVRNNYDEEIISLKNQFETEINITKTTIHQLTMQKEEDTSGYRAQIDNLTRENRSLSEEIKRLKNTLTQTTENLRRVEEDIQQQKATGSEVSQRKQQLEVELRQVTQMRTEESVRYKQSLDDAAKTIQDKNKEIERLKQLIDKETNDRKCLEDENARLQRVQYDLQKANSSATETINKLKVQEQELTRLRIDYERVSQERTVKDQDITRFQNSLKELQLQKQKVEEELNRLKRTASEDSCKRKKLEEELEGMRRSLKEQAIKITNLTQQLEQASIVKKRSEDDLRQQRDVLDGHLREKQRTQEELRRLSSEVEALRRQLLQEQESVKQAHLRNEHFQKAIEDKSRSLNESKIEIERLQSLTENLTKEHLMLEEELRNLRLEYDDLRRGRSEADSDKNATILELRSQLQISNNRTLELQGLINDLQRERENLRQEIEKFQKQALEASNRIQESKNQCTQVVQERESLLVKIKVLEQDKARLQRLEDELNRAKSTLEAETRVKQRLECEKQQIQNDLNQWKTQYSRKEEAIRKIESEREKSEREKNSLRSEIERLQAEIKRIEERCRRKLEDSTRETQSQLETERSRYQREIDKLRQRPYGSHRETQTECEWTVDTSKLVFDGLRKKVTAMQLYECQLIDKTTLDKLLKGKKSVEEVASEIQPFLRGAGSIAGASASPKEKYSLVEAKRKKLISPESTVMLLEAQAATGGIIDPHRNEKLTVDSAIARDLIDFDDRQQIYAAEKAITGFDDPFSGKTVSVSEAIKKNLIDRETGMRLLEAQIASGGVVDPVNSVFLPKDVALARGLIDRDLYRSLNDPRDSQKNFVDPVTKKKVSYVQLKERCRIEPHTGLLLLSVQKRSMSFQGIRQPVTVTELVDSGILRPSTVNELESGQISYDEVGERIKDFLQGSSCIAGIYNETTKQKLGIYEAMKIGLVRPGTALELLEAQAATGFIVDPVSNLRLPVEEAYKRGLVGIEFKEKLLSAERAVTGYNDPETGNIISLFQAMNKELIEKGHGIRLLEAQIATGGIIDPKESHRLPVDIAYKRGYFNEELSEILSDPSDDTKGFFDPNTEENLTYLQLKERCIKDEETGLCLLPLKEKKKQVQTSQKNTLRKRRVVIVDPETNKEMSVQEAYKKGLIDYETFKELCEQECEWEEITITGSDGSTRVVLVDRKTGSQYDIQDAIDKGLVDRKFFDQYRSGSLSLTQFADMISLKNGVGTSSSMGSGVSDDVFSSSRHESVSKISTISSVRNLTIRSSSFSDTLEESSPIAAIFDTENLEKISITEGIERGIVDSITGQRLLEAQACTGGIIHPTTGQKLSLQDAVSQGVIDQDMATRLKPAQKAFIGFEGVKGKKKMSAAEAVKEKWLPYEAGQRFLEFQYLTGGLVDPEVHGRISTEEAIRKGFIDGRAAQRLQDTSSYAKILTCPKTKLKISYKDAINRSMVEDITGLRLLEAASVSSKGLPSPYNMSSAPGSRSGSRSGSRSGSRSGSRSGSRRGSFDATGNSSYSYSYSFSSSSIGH
UniProt Q15717: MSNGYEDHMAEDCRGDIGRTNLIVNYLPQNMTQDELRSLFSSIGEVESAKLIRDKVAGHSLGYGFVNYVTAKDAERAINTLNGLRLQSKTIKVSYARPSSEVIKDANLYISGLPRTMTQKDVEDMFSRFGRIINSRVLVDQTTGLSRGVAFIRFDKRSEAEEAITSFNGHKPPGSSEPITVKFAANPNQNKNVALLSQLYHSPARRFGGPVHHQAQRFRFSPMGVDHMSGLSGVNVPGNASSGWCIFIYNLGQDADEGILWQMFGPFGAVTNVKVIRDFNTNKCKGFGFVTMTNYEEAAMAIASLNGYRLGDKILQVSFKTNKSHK
UniProt O75533: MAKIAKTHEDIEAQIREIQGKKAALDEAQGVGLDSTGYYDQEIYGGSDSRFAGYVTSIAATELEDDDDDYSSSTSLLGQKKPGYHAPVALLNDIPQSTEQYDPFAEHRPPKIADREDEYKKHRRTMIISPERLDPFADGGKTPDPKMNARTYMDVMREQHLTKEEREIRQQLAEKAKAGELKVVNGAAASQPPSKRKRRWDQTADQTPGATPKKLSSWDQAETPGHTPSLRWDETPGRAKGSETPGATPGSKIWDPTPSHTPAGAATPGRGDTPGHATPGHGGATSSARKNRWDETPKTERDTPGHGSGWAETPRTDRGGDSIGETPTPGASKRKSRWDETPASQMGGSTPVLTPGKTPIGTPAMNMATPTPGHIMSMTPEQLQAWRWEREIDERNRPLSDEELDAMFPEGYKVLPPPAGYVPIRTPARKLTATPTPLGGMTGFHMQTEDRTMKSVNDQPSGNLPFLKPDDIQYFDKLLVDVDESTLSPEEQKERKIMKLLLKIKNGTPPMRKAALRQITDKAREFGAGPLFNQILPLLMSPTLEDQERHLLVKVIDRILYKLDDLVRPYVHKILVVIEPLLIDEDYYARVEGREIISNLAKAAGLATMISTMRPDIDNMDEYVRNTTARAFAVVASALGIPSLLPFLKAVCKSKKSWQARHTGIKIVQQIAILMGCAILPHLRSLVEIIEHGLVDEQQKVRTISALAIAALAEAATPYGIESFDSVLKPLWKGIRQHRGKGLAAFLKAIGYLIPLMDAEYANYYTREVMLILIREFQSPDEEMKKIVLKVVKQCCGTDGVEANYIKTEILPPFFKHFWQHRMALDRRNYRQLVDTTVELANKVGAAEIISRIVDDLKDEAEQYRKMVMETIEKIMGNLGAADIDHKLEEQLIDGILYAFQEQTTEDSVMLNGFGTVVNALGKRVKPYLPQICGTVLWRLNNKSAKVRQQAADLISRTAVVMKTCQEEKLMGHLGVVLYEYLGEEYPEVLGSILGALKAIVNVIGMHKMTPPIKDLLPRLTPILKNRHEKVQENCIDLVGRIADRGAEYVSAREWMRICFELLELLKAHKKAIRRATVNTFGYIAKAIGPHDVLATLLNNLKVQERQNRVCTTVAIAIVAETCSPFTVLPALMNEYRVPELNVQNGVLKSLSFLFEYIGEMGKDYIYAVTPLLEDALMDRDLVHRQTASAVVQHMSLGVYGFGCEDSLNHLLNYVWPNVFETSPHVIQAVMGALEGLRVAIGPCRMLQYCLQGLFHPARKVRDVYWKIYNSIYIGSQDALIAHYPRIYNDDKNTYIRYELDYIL
UniProt Q14258: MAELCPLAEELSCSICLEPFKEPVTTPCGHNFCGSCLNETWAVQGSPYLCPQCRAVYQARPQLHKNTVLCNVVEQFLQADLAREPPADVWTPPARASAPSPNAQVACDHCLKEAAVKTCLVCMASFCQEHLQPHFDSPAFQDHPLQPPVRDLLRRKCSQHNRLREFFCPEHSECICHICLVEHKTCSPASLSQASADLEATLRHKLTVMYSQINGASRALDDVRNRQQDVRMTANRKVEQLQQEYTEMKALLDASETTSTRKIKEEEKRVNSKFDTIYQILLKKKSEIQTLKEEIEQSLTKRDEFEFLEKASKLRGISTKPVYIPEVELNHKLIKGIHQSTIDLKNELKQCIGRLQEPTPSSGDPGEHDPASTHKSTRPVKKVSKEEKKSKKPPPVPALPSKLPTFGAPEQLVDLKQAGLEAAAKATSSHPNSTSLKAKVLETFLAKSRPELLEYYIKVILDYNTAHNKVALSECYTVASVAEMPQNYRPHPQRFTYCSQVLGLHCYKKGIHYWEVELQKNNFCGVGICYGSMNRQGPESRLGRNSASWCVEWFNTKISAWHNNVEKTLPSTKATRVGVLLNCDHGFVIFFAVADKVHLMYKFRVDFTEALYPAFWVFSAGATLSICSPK
UniProt Q9UPN9: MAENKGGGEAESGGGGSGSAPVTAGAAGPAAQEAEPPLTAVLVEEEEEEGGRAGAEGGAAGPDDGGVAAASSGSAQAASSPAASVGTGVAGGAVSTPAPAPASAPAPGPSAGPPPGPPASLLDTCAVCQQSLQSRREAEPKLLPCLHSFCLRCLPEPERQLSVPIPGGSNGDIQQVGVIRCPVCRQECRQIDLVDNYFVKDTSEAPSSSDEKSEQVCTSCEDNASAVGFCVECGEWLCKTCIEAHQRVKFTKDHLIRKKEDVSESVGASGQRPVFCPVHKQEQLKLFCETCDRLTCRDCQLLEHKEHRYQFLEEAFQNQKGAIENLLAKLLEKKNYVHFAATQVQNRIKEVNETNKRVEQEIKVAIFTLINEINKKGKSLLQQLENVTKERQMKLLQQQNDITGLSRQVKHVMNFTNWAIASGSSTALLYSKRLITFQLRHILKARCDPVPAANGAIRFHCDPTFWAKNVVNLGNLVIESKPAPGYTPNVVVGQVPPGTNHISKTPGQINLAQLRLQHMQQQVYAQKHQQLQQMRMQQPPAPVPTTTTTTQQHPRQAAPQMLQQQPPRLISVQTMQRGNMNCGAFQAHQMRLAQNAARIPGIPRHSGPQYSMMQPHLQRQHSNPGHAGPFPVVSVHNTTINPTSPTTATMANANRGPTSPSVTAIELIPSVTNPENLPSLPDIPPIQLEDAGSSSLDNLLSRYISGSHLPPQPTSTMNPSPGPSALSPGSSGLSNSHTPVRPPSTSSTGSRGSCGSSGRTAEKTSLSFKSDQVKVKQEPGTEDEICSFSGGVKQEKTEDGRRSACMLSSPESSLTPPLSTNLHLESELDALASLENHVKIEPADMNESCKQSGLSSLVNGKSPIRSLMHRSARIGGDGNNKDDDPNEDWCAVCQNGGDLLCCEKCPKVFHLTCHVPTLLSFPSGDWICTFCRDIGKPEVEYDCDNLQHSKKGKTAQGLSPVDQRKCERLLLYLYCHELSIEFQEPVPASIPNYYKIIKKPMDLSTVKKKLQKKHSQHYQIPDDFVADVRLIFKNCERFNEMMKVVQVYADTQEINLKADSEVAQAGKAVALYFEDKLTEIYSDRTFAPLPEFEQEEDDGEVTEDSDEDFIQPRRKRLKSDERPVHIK

T1: Zeb1/GFP fusion protein (UniProt P37275)
T1 sequence: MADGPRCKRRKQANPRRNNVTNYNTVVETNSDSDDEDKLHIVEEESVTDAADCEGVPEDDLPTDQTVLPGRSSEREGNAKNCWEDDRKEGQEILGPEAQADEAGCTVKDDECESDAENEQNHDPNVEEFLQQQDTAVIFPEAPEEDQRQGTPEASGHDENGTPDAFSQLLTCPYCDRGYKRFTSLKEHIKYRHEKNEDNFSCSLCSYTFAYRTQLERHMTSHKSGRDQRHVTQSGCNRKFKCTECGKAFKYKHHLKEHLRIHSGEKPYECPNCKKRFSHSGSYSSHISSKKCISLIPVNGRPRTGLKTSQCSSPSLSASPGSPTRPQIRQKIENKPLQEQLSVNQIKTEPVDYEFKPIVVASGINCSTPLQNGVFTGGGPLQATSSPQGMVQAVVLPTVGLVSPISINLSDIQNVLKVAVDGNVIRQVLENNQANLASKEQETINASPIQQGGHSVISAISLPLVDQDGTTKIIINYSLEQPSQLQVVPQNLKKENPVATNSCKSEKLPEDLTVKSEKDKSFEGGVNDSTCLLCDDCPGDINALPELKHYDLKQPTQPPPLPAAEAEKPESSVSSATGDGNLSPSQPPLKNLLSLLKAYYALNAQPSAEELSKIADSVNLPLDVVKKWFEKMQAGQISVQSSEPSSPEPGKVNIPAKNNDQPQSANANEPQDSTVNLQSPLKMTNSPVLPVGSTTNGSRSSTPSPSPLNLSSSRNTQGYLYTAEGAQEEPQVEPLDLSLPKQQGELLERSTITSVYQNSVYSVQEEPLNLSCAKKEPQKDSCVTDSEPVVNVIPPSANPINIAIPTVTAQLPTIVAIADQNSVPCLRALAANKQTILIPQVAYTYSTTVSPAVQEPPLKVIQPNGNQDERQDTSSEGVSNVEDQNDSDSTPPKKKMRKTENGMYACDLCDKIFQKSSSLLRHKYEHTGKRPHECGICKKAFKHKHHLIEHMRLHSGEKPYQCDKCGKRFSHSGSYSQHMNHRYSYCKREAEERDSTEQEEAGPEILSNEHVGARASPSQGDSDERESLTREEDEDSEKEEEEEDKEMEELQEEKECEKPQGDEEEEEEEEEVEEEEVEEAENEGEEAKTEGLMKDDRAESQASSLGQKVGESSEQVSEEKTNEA


Biological target: T1, Zeb1/GFP fusion protein
Test: affinity purification with mass spectrometry; Zeb1/GFP captured from MCF7 nuclear extracts on llama nano-antibodies against GFP immobilized on magnetic beads; washed 4 times with RIPA buffer; SDS-PAGE, in-gel trypsin digest, LC-MALDI TOF/TOF; doxycycline-induced cells, wt p53 or shp53, low or high SORE6-mCherry (Oct4/Sox2) reporter

Molecule | binding
C-terminal-binding protein 2 (CTBP2) (from UniProt P56545 1-445) | binds
Desmoplakin (DSP) (from UniProt P15924 1-2871) | binds
ELAV-like protein 1 (ELAVL1) (from UniProt Q15717 1-326) | binds
REST corepressor (human (endogenous in MCF-7)) | binds
SMARCA2 (SNF2L2) (from UniProt P51531 1-1590) | binds
SWI/SNF complex sub-unit SMARCC2 (SMARCC2) (from UniProt Q8TAQ2 1-1214) | binds
Splicing factor 3B sub-unit 1 (SF3B1) (from UniProt O75533 1-1304) | binds
TRIM25 (from UniProt Q14258 1-630) | binds
X-ray repair cross-complementing protein 5 (XRCC5) (from UniProt P13010 1-732) | binds
Corrinoid adenosyltransferase (MMAB) (protein, UniProt Q96EY8 33-250) QSRGPQGVEDGDRPQPSSKTPRIPKIYTKTGDKGFSSTFTGERRPKDDQVFEAVGTTDELSSAIGFALELVTEKGHTFAEELQKIQCTLQDVGSALATPCSSAREAHLKYTTFKAGPILELEQWIDKYTSQLPPLTAFILPSGGKISSALHFCRAVCRRAERRVVPLVQMGETDANVAKFLNRLSDYLFTLARYAAMKEGNQEKIYMKNDPSAESEGL | binds
Caseinolytic peptidase B protein homolog (CLPB) (protein, UniProt Q9H078 37-707) VTTGSLGEPQWLRVATGGRPGTSPALFSGRGAATGGRQGGRFDTKCLAAATWGRLPGPEETLPGQDSWNGVPSRAGLGMCALAAALVVHCYSKSPSNKDAALLEAARANNMQEVSRLLSEGADVNAKHRLGWTALMVAAINRNNSVVQVLLAAGADPNLGDDFSSVYKTAKEQGIHSLEDGGQDGASRHITNQWTSALEFRRWLGLPAGVLITREDDFNNRLNNRASFKGCTALHYAVLADDYRTVKELLDGGANPLQRNEMGHTPLDYAREGEVMKLLRTSEAKYQEKQRKREAEERRRFPLEQRLKEHIIGQESAIATVGAAIRRKENGWYDEEHPLVFLFLGSSGIGKTELAKQTAKYMHKDAKKGFIRLDMSEFQERHEVAKFIGSPPGYVGHEEGGQLTKKLKQCPNAVVLFDEVDKAHPDVLTIMLQLFDEGRLTDGKGKTIDCKDAIFIMTSNVASDEIAQHALQLRQEALEMSRNRIAENLGDVQISDKITISKNFKENVIRPILKAHFRRDEFLGRINEIVYFLPFCHSELIQLVNKELNFWAKRAKQRHNITLLWDREVADVLVDGYNVHYGARSIKHEVERRVVNQLAAAYEQDLLPGGCTLRITVEDSDKQLLKSPELPSPQAEKRLPKLRLEIIDKDSKTRRLDIRAPLHPEKVCNTI | binds

The next lines start with the values.

binding | Molecule
binds | CHD5 (from UniProt Q8TDI0 1-1954)
binds | E3 ubiquitin-protein ligase TRIM33 (TRIM33) (from UniProt Q9UPN9 1-1127)
binds | SMARCA4 (BRG1) (from UniProt P51532 1-1647)
binds | SMARCC1 (from UniProt Q92922 1-1105)
binds | Thioredoxin-dependent peroxide reductase, mitochondrial (PRDX3) (protein, UniProt P30048 62-256) APAVTQHAPYFKGTAVVNGEFKDLSLDDFKGKYLVLFFYPLDFTFVCPTEIVAFSDKANEFHDVNCEVVAVSVDSHFSHLAWINTPRKNGGLGHMNIALLSDLTKQISRDYGVLLEGSGLALRGLFIIDPNGVIKHLSVNDLPVGRSVEETLRLVKAFQYVETHGEVCPANWTPDSPTIKPSPAASKEYFQKVNQ
binds | 2′-5′-oligoadenylatesynthase 3 (OAS3) (protein, UniProt Q9Y6K5 1-1087) MDLYSTPAAALDRFVARRLQPRKEFVEKARRALGALAAALRERGGRLGAAAPRVLKTVKGGSSGRGTALKGGCDSELVIFLDCFKSYVDQRARRAEILSEMRASLESWWQNPVPGLRLTFPEQSVPGALQFRLTSVDLEDWMDVSLVPAFNVLGQAGSGVKPKPQVYSTLLNSGCQGGEHAACFTELRRNFVNIRPAKLKNLILLVKHWYHQVCLQGLWKETLPPVYALELLTIFAWEQGCKKDAFSLAEGLRTVLGLIQQHQHLCVFWTVNYGFEDPAVGQFLQRQLKRPRPVILDPADPTWDLGNGAAWHWDLLAQEAASCYDHPCFLRGMGDPVQSWKGPGLPRAGCSGLGHPIQLDPNQKTPENSKSLNAVYPRAGSKPPSCPAPGPTGAASIVPSVPGMALDLSQIPTKELDRFIQDHLKPSPQFQEQVKKAIDIILRCLHENCVHKASRVSKGGSFGRGTDLRDGCDVELIIFLNCFTDYKDQGPRRAEILDEMRAQLESWWQDQVPSLSLQFPEQNVPEALQFQLVSTALKSWTDVSLLPAFDAVGQLSSGTKPNPQVYSRLLTSGCQEGEHKACFAELRRNFMNIRPVKLKNLILLVKHWYRQVAAQNKGKGPAPASLPPAYALELLTIFAWEQGCRQDCFNMAQGFRTVLGLVQQHQQLCVYWTVNYSTEDPAMRMHLLGQLRKPRPLVLDPADPTWNVGHGSWELLAQEAAALGMQACFLSRDGTSVQPWDVMPALLYQTPAGDLDKFISEFLQPNRQFLAQVNKAVDTICSFLKENCFRNSPIKVIKVVKGGSSAKGTALRGRSDADLVVFLSCFSQFTEQGNKRAEIISEIRAQLEACQQERQFEVKFEVSKWENPRVLSFSLTSQTMLDQSVDFDVLPAFDALGQLVSGSRPSSQVYVDLIHSYSNAGEYSTCFTELQRDFIISRPTKLKSLIRLVKHWYQQCTKISKGRGSLPPQHGLELLTVYAWEQGGKDSQFNMAEGFRTVLELVTQYRQLCIYWTINYNAKDKTVGDFLKQQLQKPRPIILDPADPTGNLGHNARWDLLAKEAAACTSALCCMGRNGIPIQPWPVKAAV
binds | Zinc finger transcription factor Trps1 (TRPS1) (protein, UniProt Q9UHF7 1-1281) MVRKKNPPLRNVASEGEGQILEPIGTESKVSGKNKEFSADQMSENTDQSDAAELNHKEEHSLHVQDPSSSSKKDLKSAVLSEKAGFNYESPSKGGNFPSFPHDEVTDRNMLAFSSPAAGGVCEPLKSPQRAEADDPQDMACTPSGDSLETKEDQKMSPKATEETGQAQSGQANCQGLSPVSVASKNPQVPSDGGVRLNKSKTDLLVNDNPDPAPLSPELQDFKCNICGYGYYGNDPTDLIKHFRKYHLGLHNRTRQDAELDSKILALHNMVQFSHSKDFQKVNRSVFSGVLQDINSSRPVLLNGTYDVQVTSGGTFIGIGRKTPDCQGNTKYFRCKFCNFTYMGNSSTELEQHFLQTHPNKIKASLPSSEVAKPSEKNSNKSIPALQSSDSGDLGKWQDKITVKAGDDTPVGYSVPIKPLDSSRQNGTEATSYYWCKFCSFSCESSSSLKLLEHYGKQHGAVQSGGLNPELNDKLSRGSVINQNDLAKSSEGETMTKTDKSSSGAKKKDFSSKGAEDNMVTSYNCQFCDFRYSKSHGPDVIVVGPLLRHYQQLHNIHKCTIKHCPFCPRGLCSPEKHLGEITYPFACRKSNCSHCALLLLHLSPGAAGSSRVKHQCHQCSFTTPDVDVLLFHYESVHESQASDVKQEANHLQGSDGQQSVKESKEHSCTKCDFITQVEEEISRHYRRAHSCYKCRQCSFTAADTQSLLEHFNTVHCQEQDITTANGEEDGHAISTIKEEPKIDFRVYNLLTPDSKMGEPVSESVVKREKLEEKDGLKEKVWTESSSDDLRNVTWRGADILRGSPSYTQASLGLLTPVSGTQEQTKTLRDSPNVEAAHLARPIYGLAVETKGFLQGAPAGGEKSGALPQQYPASGENKSKDESQSLLRRRRGSGVFCANCLTTKTSLWRKNANGGYVCNACGLYQKLHSTPRPLNIIKQNNGEQIIRRRTRKRLNPEALQAEQLNKQQRGSNEEQVNGSPLERRSEDHLTESHQREIPLPSLSKYEAQGSLTKSHSAQQPVLVSQTLDIHKRMQPLHIQIKSPQESTGDPGNSSSVSEGKGSSERGSPIEKYMRPAKHPNYSPPGSPIEKYQYPLFGLPFVHNDFQSEADWLRFWSKYKLSVPGNPHYLSHVPGLPNPCQNYVPYPTFNLPPHFSAVGSDNDIPLDLAIKHSRPGPTANGASKEKTKAPPNVKNEGPLNVVKTEKVDRSTQDELSTKCVHCGIVFLDEVMYALHMSCHGDSGPFQCSICQHLCTDKYDFTTHIQRGLHRNNAQVEKNGKPKE

These are yes or no findings as the source states them, for the method shown. Binding seen in cells or lysates may run through a third protein. A yes stands for co-enrichment or nearness to the bait. Other partners may have been found. Tags and fused reporters may be left off the sequences shown.
